Measured values reported in paper PMC4150809.
No constants are given. Whether binding was seen depends on the method and setting. In cells and extracts the contact can be indirect. Here binding means that the protein was enriched with, or labelled near, the bait; the list need not be complete.

Molecular target: Flag-tagged PRMT5 (UniProt O14744)
Assay: affinity purification with mass spectrometry; anti-FLAG M2 affinity gel immunoprecipitates from K562 cells stably overexpressing PRMT5-FLAG, eluted with 3x FLAG peptide, SDS-PAGE, bands excised, electrospray-ion trap tandem mass spectrometry

LYAR (human homologue of mouse Ly-1 antibody reactive clone) (from UniProt Q9NX58 1-379)
binding: binds
